Results deposited as PubChem BioAssay AID602196 (INSERM, 2012)
Here is one part, drawn at random, of about 23,000 deposited reagents. 455 of all reagents (2%) count as active. 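Active includes both protection and sensitisation; some change values fall well beyond the stated -50 to +50 range.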 A number with no mark means an inactive call. Further read-outs or replicates are left out here. The record does not give: the amount of reagent.

Purpose: 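Genes whose knock-down alters cisplatin killing of lung cancer cells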
Cell system: human A549 lung cancer cells
Reagent: siRNA pair against human genes
Duration: 48 h transfection before cisplatin; time from cisplatin to read-out not stated
Treatment: cisplatin at a dose killing half of control-siRNA cells; exact dose and duration not given
Detection: 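Cisplatin cell death as a shift from the 50% death seen with control siRNA; siRNAs toxic or growth-blocking alone scored 0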
Direction: two-siRNA summed score (-2 to +2): higher = both siRNAs protect from cisplatin killing; -2 means both sensitise
Call rule: 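Each siRNA scores 0 if harmful alone by LDH or WST-1, otherwise +1 if it reduces and -1 if it increases cisplatin killing; a gene is active when both siRNAs agree (sum +2 or -2)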
Calls: active = both siRNAs shift cisplatin killing the same way; inactive = no consistent shift, or siRNA harmful alone

RLIG1 — two-siRNA summed score (-2 to +2): 0
TRIM49 — two-siRNA summed score (-2 to +2): 0
CCT4 — two-siRNA summed score (-2 to +2): -1
DGUOK — two-siRNA summed score (-2 to +2): 0
RPS6KC1 — two-siRNA summed score (-2 to +2): 0
APOBEC3G — two-siRNA summed score (-2 to +2): 1
TPRA1 — two-siRNA summed score (-2 to +2): 0
SLX1B — two-siRNA summed score (-2 to +2): 0
KIAA1143 — two-siRNA summed score (-2 to +2): 1
RHOF — two-siRNA summed score (-2 to +2): 0
SV2B — two-siRNA summed score (-2 to +2): 1
LOC285442 — two-siRNA summed score (-2 to +2): 0
LOC441748 — two-siRNA summed score (-2 to +2): 0
SIGLEC7 — two-siRNA summed score (-2 to +2): -1
COQ8B — two-siRNA summed score (-2 to +2): 0
SOX18 — two-siRNA summed score (-2 to +2): -1
LOC401270 — two-siRNA summed score (-2 to +2): 0
DCTPP1 — two-siRNA summed score (-2 to +2): -1
KLC4 — two-siRNA summed score (-2 to +2): 0
RDH13 — two-siRNA summed score (-2 to +2): 1
LOC400649 — two-siRNA summed score (-2 to +2): 0
